Literature values in patent US20110020279A1 (priority 2010, published 2011).
For some of these results: At least one compound was matched to its structure with a doubt left. Some results were stated once for a whole list of compounds, not compound by compound.

Experiments:
[1] = rat, in vivo; cited from earlier work
[2] = mouse, in vivo; cited from earlier work
[3] = tested on: rabies virus; conditions: cited from earlier work
[4] = tested on: cultured microglia; conditions: cited from earlier work
[5] = tested on: activated microglia; conditions: cited from earlier work

Question: What does the source list for `S` [hydrogen sulfide]?
Answer: brain damage caused by experimental stroke [1]: reduce the extent of brain damage; body temperature above ambient temperature [2]: 2 °C; breathing rate [2]: 10 breaths per minute

Question: For `C[C@]12N[C@H](Cc3ccccc31)c1ccccc12` [MK-801], which “inhibition of production of rabies virus” value [3] is on record?
Answer: 100- to 1,000 fold

Question: With `CNC1(c2ccccc2Cl)CCCCC1=O` (stereo not shown) [ketamine] as the molecule, how does the “inhibition of production of rabies virus” value [3] read?
Answer: 100- to 1,000 fold

Question: Which “hypoxia-induced production of nitric oxide, TNF alpha, IL-1 beta and iNOS protein expression” value [4] does the source give for `CN(C)c1ccc(O)c2c1C[C@H]1C[C@H]3[C@H](N(C)C)C(O)=C(C(N)=O)C(=O)[C@@]3(O)C(O)=C1C2=O` [minocycline] here?
Answer: markedly inhibited

Question: For `CC1=C(/C=C/C(C)=C/C=C/C(C)=C/C(=O)O)C(C)(C)CCC1` [Retinoic acid], which “expression of TNF-alpha and iNOS in activated rat microglia” value [5] is on record?
Answer: inhibits
